# Values quoted from earlier work in patent publication US7621740B2, “Mahonia aquifolium extract, extraction process and pharmaceutical composition containing the same” (Prime Pharmaceutical Corporation, priority 2003, dated 2009).
# At least one structure is not confirmed: it was looked up by name or label, or the drawing left a doubt.
# Tested on: lipid peroxidation
smiles,measurement,value
O=C1c2c(O)cccc2Cc2cccc(O)c21 [anthralin],effect on lipid peroxidation,slightly stimulates
